# Counter-ions that a name gives are not always drawn. Some of the results follow. Single values of this set are uncertain.
# System: Peyronie's disease tunica albuginea primary fibroblasts
# Experiment: cell viability (DRAQ5 nuclear stain) relative to TGF-beta1-only control; higher = more viable cells
# Details: 10 µM; TGF-beta1 10 ng/mL; 72 h
row,SMILES,cell viability
1,COC(=O)C1=C(C)NC(C)=C(C(=O)OC(C)(C)CN(C)CCC(c2ccccc2)c2ccccc2)C1c1cccc([N+](=O)[O-])c1 (centres undefined) [Lercanidipine hydrochloride],74%
2,O=c1[nH]c2ccccc2n1CCN1CCN(c2cccc(C(F)(F)F)c2)CC1 [Flibanserin],86.6%
3,c1ccc(-c2ccc(C(c3ccccc3)n3ccnc3)cc2)cc1 (centres undefined) [Bifonazole],96.4%
4,Oc1c(Cl)cc(Cl)c2cccnc12 [Chloroxine],79.2%
5,O=C1CC[C@@H](C(=O)N2CSC[C@H]2C(=O)O)N1 [Pidotimod],85.6%
6,CN(C)CCC(c1ccc(Br)cc1)c1ccccn1 (centres undefined) [Brompheniramine hydrogen maleate],88.6%
7,COc1cc(Nc2c(C#N)cnc3cc(OCCCN4CCN(C)CC4)c(OC)cc23)c(Cl)cc1Cl [Bosutinib (SKI-606)],30.2%
8,COc1cccc2c1C(=O)c1c(O)c3c(c(O)c1C2=O)CC(O)(C(=O)CO)CC3OC1CC(N)C(O)C(C)O1 (centres undefined) [Doxorubicin (Adriamycin) HCl],43.6%
9,CCCCCCCCCC(=O)N[C@@H](Cc1c[nH]c2ccccc12)C(=O)N[C@H](CC(N)=O)C(=O)N[C@@H](CC(=O)O)C(=O)N[C@@H]1C(=O)NCC(=O)N[C@@H](CCCN)C(=O)N[C@@H](CC(=O)O)C(=O)N[C@H](C)C(=O)N[C@@H](CC(=O)O)C(=O)NCC(=O)N[C@H](CO)C(=O)N[C@@H]([C@H](C)CC(=O)O)C(=O)N[C@@H](CC(=O)c2ccccc2N)C(=O)O[C@@H]1C [Daptomycin],83.8%
10,CCC1(c2ccccc2)C(=O)NCNC1=O [Primidone],102%
11,CCCCc1oc2ccc(NS(C)(=O)=O)cc2c1C(=O)c1ccc(OCCCN(CCCC)CCCC)cc1 [Dronedarone HCl],84.9%
12,Nc1ncnc2c1ncn2[C@@H]1O[C@H](CO)[C@@H](O)[C@@H]1O [Vidarabine monohydrate],85.3%
13,Nc1ncnc2c1ncn2[C@@H]1O[C@H](CO)[C@@H](O)[C@@H]1O [Vidarabine],90.6%
14,CCCCC(CC)COC(=O)CC(C(=O)OCC(CC)CCCC)S(=O)(=O)O (centres undefined) [Docusate Sodium],91.6%
15,CC[C@H](C)[C@H](N)C(=O)O [isoleucine],97.6%
16,NC(=O)[C@@H]1CSSCCC(=O)N[C@@H](CCCCN=C(N)N)C(=O)NCC(=O)N[C@@H](CC(=O)O)C(=O)N[C@@H](Cc2c[nH]c3ccccc23)C(=O)N2CCC[C@H]2C(=O)N1 [Eptifibatide Acetate],99.9%
17,C[C@@](Cc1ccc(O)c(O)c1)(NN)C(=O)O [Carbidopa],83.2%
18,CCOc1nc2cccc(C(=O)O)c2n1Cc1ccc(-c2ccccc2-c2nnn[nH]2)cc1 [Candesartan],98.2%
19,Cn1c(=O)c2c(ncn2CC2OCCO2)n(C)c1=O [Doxofylline],97%
20,CN1CCN(CC(=O)N2c3ccccc3C(=O)Nc3cccnc32)CC1 [Pirenzepine dihydrochloride],94.7%
21,CC(C)(C)c1cc(C(C)(C)C)c(NC(=O)c2c[nH]c3ccccc3c2=O)cc1O [Ivacaftor (VX-770)],85.6%
22,Cc1ccc([C@@H]2O[C@H](CO)[C@@H](O)[C@H](O)[C@H]2O)cc1Cc1ccc(-c2ccc(F)cc2)s1 [Canagliflozin],81.3%
23,CCOC(=O)[C@H]1O[C@@H]1C(=O)N[C@@H](CC(C)C)C(=O)NCCC(C)C [Aloxistatin],92.9%

row,SMILES,cell viability
1,CC(C)NCC(O)COc1ccc(CC(N)=O)cc1 (centres undefined) [Atenolol],84.4%
2,CC(C)Cn1cnc2c(N)nc3ccccc3c21 [Imiquimod],95.8%
3,NC(=O)N1c2ccccc2CC(=O)c2ccccc21 [Oxcarbazepine],82.4%
4,NC1=NCC2c3ccccc3Cc3ccccc3N12 (centres undefined) [Epinastine HCl],65.3%
5,Cn1nnc(-c2ccc(-c3ccc(N4C[C@H](CO)OC4=O)cc3F)cn2)n1 [Tedizolid],87.9%
6,Cc1cccc(Nc2ccncc2S(=O)(=O)NC(=O)NC(C)C)c1 [Torsemide],92.5%
7,O=C1N=C(O)NC1(c1ccccc1)c1ccccc1 [Phenytoin Sodium],99.9%
8,CCNC(=O)[C@@H]1CCCN1C(=O)[C@H](CCCNC(=N)N)NC(=O)[C@H](CC(C)C)NC(=O)[C@@H](CC(C)C)NC(=O)[C@H](Cc1ccc(O)cc1)NC(=O)[C@H](CO)NC(=O)[C@H](Cc1c[nH]c2ccccc12)NC(=O)[C@H](Cc1c[nH]cn1)NC(=O)[C@@H]1CCC(=O)N1 [Leuprorelin Acetate],102%
9,CCNC(=O)[C@@H]1CCCN1C(=O)[C@H](CCCNC(=N)N)NC(=O)[C@H](CC(C)C)NC(=O)[C@@H](CC(C)C)NC(=O)[C@H](Cc1ccc(O)cc1)NC(=O)[C@H](CO)NC(=O)[C@H](Cc1c[nH]c2ccccc12)NC(=O)[C@H](Cc1c[nH]cn1)NC(=O)[C@@H]1CCC(=O)N1 [Leuprolide Acetate],82.7%
10,CN(C)c1cc(NC(=O)CNC(C)(C)C)c(O)c2c1C[C@H]1C[C@H]3[C@H](N(C)C)C(O)=C(C(N)=O)C(=O)[C@@]3(O)C(O)=C1C2=O [Tigecycline],89.9%
11,CC1(C)O[C@@H]2[C@@H](CO[C@@]3(COS(N)(=O)=O)OC(C)(C)O[C@@H]23)O1 [Topiramate],47.5%
12,COc1cc(NS(=O)(=O)c2ccc(N)cc2)nc(OC)n1 [Sulphadimethoxine],85.4%
13,Cc1ccccc1C(=O)Nc1ccc(C(=O)N2CCCC(N(C)C)c3ccccc32)cc1 (centres undefined) [Mozavaptan],93.8%
14,CN(Cc1ccc(C(C)(C)C)cc1)Cc1cccc2ccccc12 [Butenafine HCl],94.3%
15,S=c1[nH]cnc2nc[nH]c12 [Mercaptopurine (6-MP)],90.4%
16,CC1(C)S[C@@H]2[C@H](NC(=O)COc3ccccc3)C(=O)N2[C@H]1C(=O)O [Penicillin V potassium salt],100%
17,COc1ccc2c3c1O[C@H]1C[C@@H](O)C=C[C@@]31CCN(C)C2 [Galanthamine HBr],98%
18,O=c1[nH]c(=O)n([C@H]2C[C@H](O)[C@@H](CO)O2)cc1C(F)(F)F [Trifluridine],88.8%
19,Cc1cc(C#N)cc(C)c1Oc1nc(Nc2ccc(C#N)cc2)nc(N)c1Br [Etravirine (TMC125)],92.1%
20,c1cc(CN2CCCNCCNCCCNCC2)ccc1CN1CCCNCCNCCCNCC1 [Plerixafor 8HCl (AMD3100 8HCl)],102%
21,c1cc(CN2CCCNCCNCCCNCC2)ccc1CN1CCCNCCNCCCNCC1 [Plerixafor (AMD3100)],110%
22,CC1(C)[C@@H](O)CC[C@]2(C)[C@H]3C(=O)C=C4[C@@H]5C[C@@](C)(C(=O)O)CC[C@]5(C)CC[C@@]4(C)[C@]3(C)CC[C@@H]12 [Enoxolone],101%
23,O=C(O)c1ccc(NC(=O)[C@H](Cc2ccc(O)cc2)NC(=O)c2ccccc2)cc1 [Bentiromide],83.5%

row,SMILES,cell viability
1,O=C(O)c1ccc(-n2nc(-c3ccccc3O)nc2-c2ccccc2O)cc1 [Deferasirox],73.9%
2,NCCS [Cysteamine HCl],89.4%
3,COCCOC(=O)C1=C(C)NC(C)=C(C(=O)OC(C)C)C1c1cccc([N+](=O)[O-])c1 (centres undefined) [Nimodipine],97.2%
4,COc1c(C)c2c(c(O)c1C/C=C(\C)CCC(=O)OCCN1CCOCC1)C(=O)OC2 [Mycophenolate Mofetil],51.1%
5,CN1C(C(=O)Nc2ccccn2)=C(O)c2ccccc2S1(=O)=O [Piroxicam],94%
6,CC(C)C[C@H](NC(=O)CNC(=O)[C@H](Cc1ccc(O)cc1)NC(=O)[C@H](CO)NC(=O)[C@H](Cc1c[nH]c2ccccc12)NC(=O)[C@H](Cc1cnc[nH]1)NC(=O)[C@@H]1CCC(=O)N1)C(=O)N[C@@H](CCCNC(=N)N)C(=O)N1CCC[C@H]1C(=O)NCC(N)=O [Gonadorelin Acetate],103%
7,COC(=O)CCc1ccc(OCC(O)CNC(C)C)cc1 (centres undefined) [Esmolol HCl],93.2%
8,NCC(=O)CCC(=O)O [5-Aminolevulinic acid HCl],91.1%
9,Cc1ccc(Sc2ccccc2N2CCNCC2)c(C)c1 [Vortioxetine],62.9%
10,Cc1ccc(Sc2ccccc2N2CCNCC2)c(C)c1,80%
11,O=C(O)/C=C/C(=O)O [Fumaric acid],90.9%
12,O=C(O)C[C@H](O)C[C@H](O)/C=C/c1c(C2CC2)nc2ccccc2c1-c1ccc(F)cc1 [Pitavastatin Calcium],40%
13,Cc1ccc(C)c(OCCCC(C)(C)C(=O)O)c1 [Gemfibrozil],95.8%
14,NS(=O)(=O)Cc1noc2ccccc12 [Zonisamide],78.9%
15,COc1ccc2c(c1)C(=O)N(CCc1ccc(S(=O)(=O)NC(=O)NC3CCCCC3)cc1)C(=O)C2(C)C [Gliquidone],95.8%
16,Cc1cn([C@H]2C[C@H](N=[N+]=[N-])[C@@H](CO)O2)c(=O)[nH]c1=O [Zidovudine],94.7%
17,COc1ccc([C@@H]2Sc3ccccc3N(CCN(C)C)C(=O)[C@@H]2OC(C)=O)cc1 [Diltiazem HCl],88.8%
18,NCCC(O)(P(=O)(O)O)P(=O)(O)O [Pamidronate Disodium],106%
19,CC(C[N+](C)(C)C)OC(N)=O (centres undefined) [Bethanechol chloride],95.8%
20,CCCNC(C)C(=O)Nc1c(C)csc1C(=O)OC (centres undefined) [Articaine HCl],97.3%
21,Cc1ccc(C(=O)C(C)CN2CCCCC2)cc1 (centres undefined) [Tolperisone HCl],94.2%
22,CNCC[C@@H](Oc1ccccc1C)c1ccccc1 [Atomoxetine HCl],95.2%
23,CC(C)(O)CNc1nc(Nc2ccnc(C(F)(F)F)c2)nc(-c2cccc(C(F)(F)F)n2)n1 [Enasidenib (AG-221)],102%

# Given bar-delimited: part of the list above
row | SMILES | cell viability
4 | COc1c(C)c2c(c(O)c1C/C=C(\C)CCC(=O)OCCN1CCOCC1)C(=O)OC2 [Mycophenolate Mofetil] | 51.1%
5 | CN1C(C(=O)Nc2ccccn2)=C(O)c2ccccc2S1(=O)=O [Piroxicam] | 94%
6 | CC(C)C[C@H](NC(=O)CNC(=O)[C@H](Cc1ccc(O)cc1)NC(=O)[C@H](CO)NC(=O)[C@H](Cc1c[nH]c2ccccc12)NC(=O)[C@H](Cc1cnc[nH]1)NC(=O)[C@@H]1CCC(=O)N1)C(=O)N[C@@H](CCCNC(=N)N)C(=O)N1CCC[C@H]1C(=O)NCC(N)=O [Gonadorelin Acetate] | 103%
7 | COC(=O)CCc1ccc(OCC(O)CNC(C)C)cc1 (centres undefined) [Esmolol HCl] | 93.2%
8 | NCC(=O)CCC(=O)O [5-Aminolevulinic acid HCl] | 91.1%
9 | Cc1ccc(Sc2ccccc2N2CCNCC2)c(C)c1 [Vortioxetine] | 62.9%
